# Results taken from publication PMC9699620.
# Amino acid sequences for entries named in this document (tags omitted).
# UniProt O43150: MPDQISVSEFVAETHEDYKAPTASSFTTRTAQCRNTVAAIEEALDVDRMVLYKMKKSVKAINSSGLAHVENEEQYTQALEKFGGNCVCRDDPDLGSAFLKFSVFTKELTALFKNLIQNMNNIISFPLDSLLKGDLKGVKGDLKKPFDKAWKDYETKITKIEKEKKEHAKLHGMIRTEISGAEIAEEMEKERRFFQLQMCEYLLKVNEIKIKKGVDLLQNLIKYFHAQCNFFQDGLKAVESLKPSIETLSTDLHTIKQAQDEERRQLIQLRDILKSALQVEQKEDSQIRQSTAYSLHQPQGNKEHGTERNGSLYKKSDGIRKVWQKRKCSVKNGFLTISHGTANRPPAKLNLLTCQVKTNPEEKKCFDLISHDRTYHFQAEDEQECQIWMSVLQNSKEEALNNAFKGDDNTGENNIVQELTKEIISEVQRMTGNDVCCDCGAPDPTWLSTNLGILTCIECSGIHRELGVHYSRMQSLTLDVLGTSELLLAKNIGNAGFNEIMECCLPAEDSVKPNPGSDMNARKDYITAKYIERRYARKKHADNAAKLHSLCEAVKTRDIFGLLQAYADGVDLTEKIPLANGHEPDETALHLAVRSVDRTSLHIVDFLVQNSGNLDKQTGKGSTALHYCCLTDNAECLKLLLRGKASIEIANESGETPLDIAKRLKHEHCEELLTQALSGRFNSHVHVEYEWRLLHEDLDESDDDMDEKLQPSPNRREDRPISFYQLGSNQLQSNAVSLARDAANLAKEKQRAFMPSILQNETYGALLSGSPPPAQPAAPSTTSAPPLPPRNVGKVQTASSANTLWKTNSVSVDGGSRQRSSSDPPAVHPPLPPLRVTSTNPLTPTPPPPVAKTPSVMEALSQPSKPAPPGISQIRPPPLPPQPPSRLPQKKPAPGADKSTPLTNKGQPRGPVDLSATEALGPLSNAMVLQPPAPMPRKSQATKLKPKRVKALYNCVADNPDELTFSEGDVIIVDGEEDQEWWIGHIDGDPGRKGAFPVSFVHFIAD
# UniProt Q9Y3Z3: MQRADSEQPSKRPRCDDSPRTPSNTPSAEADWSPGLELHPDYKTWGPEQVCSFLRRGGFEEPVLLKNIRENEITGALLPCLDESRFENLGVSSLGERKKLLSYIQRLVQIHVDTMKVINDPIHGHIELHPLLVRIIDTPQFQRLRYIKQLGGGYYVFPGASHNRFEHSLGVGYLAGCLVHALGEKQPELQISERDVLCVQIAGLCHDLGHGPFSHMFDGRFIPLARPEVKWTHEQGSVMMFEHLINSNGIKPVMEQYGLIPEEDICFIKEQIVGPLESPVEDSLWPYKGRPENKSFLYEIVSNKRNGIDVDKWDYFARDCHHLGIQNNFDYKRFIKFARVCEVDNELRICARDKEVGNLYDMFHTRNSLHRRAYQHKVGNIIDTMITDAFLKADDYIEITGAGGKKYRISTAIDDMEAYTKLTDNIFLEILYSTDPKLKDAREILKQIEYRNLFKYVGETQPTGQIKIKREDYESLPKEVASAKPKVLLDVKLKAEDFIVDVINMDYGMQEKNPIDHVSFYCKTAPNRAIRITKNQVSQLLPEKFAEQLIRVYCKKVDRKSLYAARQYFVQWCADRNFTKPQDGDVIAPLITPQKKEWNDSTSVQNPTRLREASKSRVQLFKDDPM
# Results are given in words; binding and its absence hold for the method and conditions named. Binding seen in cells or lysates may run through a third protein. Some binding calls cover weakened binding; strength is not graded here.
# Experiments:
# [1] = biological target: ArfGAP with SH3 Domain, Ankyrin Repeat and PH Domain 2 (ASAP2) (human (endogenous in THP-1)) (UniProt O43150); experiment: co-IP; endogenous proteins in lysate (1 mg total protein) of 1,25(OH)2D3-stimulated THP-1 M0 macrophages; IP with anti-ASAP2 or anti-SAMHD1 antibody (2 µg) overnight at 4 °C, protein A/G beads, Western blot; IgG as negative control
# [2] = biological target: SAM and HD domain-containing deoxynucleoside triphosphate triphosphohydrolase 1 (SAMHD1) (human (endogenous in THP-1)) (UniProt Q9Y3Z3); experiment: as above
binding [1],binding [2],Substance
binds,–,SAM and HD domain-containing deoxynucleoside triphosphate triphosphohydrolase 1 (SAMHD1) (from UniProt Q9Y3Z3 1-626)
–,binds,"ArfGAP with SH3 Domain, Ankyrin Repeat and PH Domain 2 (ASAP2) (from UniProt O43150 1-1006)"
